Drawing on PMC7821095, this text covers binding for three molecules.

The target of test [1] is T1, Plasmodium falciparum chitinase PfCHT1 (P. falciparum (endogenous in NF54 ookinetes)) (UniProt Q8I4R4).
T1 sequence: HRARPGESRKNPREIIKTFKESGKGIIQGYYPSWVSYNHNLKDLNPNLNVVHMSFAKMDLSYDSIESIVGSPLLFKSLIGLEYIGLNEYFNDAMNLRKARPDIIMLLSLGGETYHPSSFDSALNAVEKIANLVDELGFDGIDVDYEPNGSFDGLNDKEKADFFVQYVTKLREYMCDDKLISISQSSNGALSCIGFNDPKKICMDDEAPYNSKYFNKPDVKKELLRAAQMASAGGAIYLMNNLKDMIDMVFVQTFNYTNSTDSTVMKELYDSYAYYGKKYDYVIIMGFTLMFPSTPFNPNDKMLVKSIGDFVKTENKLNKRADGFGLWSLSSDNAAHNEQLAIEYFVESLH
Description: affinity purification with mass spectrometry; chitin beads in filtered serum-free P. falciparum ookinete culture supernatant; washed three times with PBS; proteins detached in 8M urea, LysC and trypsin, Orbitrap Fusion; normalized against zygote culture supernatant pull-down.

The target of test [2] is T1, Plasmodium falciparum chitinase PfCHT1 (P. falciparum (endogenous in NF54 ookinetes)). The experiment in a line: mass spectrometry of the high molecular weight SDS-PAGE gel slice; P. falciparum chitin bead pull-down; SDS-PAGE gel slices including the PfCHT1 HMW complex and the 37 kDa PfCHT1, 1C3-positive bands under reduced and non-reduced conditions.
Test [3] shares this target. The experiment in a line: affinity purification with mass spectrometry; chitin beads in filtered serum-free P. falciparum ookinete culture supernatant; washed three times with PBS; proteins detached in 8M urea, LysC and trypsin, Orbitrap Fusion; normalized against zygote culture supernatant pull-down. This is another data set of the same source.

No constants are given. Whether binding was seen depends on the method and setting. In cells and extracts the contact can be indirect. A yes stands for co-enrichment or nearness to the bait. Other partners may have been found.

On to “Plasmodium falciparum secreted ookinete adhesive protein (SOAP)”, for which the binding entry in test [1] is given as “binds”.

On to “Plasmodium falciparum von Willebrand factor A domain-related protein (WARP)”, for which the binding result in test [2] and in test [1] was “binds” throughout.

B1: Plasmodium falciparum fructose-bisphosphate aldolase (enzyme, UniProt Q7KQL9 1-369)
chain: MAHCTEYMNAPKKLPADVAEELATTAQKLVQAGKGILAADESTQTIKKRFDNIKLENTIENRASYRDLLFGTKGLGKFISGAILFEETLFQKNEAGVPMVNLLHNENIIPGIKVDKGLVNIPCTDEEKSTQGLDGLAERCKEYYKAGARFAKWRTVLVIDTAKGKPTDLSIHETAWGLARYASICQQNRLVPIVEPEILADGPHSIEVCAVVTQKVLSCVFKALQENGVLLEGALLKPNMVTAGYECTAKTTTQDVGFLTVRTLRRTVPPALPGVVFLSGGQSEEEASVNLNSINALGPHPWALTFSYGRALQASVLNTWQGKKENVAKAREVLLQRAEANSLATYGKYKGGAGGENAGASLYEKKYVY
Take B1: in test [3], the binding entry is “binds”.
